Reference: article PMC6779753
No constants are given. Whether binding was seen depends on the method and setting. Binding seen in cells or lysates may run through a third protein. Some results given as binding are weak or reduced against the parent protein; the word gives no strength.

Protein sequences, listed by entry. Tags and fused reporters are not part of them. Residues count along the entry.
UniProt Q96EB6: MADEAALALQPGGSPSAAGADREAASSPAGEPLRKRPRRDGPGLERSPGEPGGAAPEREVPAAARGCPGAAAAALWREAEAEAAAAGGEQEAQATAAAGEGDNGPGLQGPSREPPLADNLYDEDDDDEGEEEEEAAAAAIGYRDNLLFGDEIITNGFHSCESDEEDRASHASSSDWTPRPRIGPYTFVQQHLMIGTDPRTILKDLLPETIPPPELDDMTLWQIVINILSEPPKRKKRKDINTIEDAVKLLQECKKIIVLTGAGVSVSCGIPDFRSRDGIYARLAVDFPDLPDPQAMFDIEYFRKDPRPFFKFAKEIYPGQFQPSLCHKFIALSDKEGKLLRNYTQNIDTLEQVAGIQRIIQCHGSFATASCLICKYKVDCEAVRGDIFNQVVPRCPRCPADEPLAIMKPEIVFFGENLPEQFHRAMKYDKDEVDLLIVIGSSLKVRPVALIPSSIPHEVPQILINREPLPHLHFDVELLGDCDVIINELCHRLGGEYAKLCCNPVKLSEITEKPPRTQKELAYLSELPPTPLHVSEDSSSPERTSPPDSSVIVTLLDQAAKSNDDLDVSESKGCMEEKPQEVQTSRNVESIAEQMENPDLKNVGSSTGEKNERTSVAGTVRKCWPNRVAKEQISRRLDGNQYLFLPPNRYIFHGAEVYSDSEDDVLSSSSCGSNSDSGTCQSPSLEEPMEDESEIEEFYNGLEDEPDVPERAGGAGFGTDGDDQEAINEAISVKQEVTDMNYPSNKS
UniProt Q8VDP4: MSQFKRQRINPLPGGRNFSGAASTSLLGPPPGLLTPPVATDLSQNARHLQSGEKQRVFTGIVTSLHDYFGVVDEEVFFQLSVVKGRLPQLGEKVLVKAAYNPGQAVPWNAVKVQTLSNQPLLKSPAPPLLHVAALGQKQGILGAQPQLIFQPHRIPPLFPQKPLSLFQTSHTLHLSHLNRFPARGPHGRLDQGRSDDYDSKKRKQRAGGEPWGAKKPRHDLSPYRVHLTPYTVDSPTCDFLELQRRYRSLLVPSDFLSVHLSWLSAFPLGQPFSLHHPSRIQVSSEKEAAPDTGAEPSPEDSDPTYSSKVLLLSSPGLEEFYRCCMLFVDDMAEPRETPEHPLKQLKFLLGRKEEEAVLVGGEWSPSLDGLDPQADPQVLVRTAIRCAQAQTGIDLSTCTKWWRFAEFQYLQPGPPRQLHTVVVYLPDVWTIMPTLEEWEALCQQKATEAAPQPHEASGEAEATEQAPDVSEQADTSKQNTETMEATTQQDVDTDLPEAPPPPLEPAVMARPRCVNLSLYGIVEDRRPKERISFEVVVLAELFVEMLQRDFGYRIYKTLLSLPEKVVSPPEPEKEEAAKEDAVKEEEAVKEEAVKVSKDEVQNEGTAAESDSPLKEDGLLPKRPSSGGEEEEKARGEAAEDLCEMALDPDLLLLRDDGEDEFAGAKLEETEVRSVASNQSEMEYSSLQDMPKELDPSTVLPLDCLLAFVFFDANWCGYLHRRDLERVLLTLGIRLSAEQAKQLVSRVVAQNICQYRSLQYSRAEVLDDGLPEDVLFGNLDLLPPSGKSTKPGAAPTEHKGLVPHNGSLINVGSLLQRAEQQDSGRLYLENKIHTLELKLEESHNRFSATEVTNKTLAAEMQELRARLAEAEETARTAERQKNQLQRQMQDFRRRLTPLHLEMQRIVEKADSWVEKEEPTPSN
UniProt Q8N163, residues 139-923: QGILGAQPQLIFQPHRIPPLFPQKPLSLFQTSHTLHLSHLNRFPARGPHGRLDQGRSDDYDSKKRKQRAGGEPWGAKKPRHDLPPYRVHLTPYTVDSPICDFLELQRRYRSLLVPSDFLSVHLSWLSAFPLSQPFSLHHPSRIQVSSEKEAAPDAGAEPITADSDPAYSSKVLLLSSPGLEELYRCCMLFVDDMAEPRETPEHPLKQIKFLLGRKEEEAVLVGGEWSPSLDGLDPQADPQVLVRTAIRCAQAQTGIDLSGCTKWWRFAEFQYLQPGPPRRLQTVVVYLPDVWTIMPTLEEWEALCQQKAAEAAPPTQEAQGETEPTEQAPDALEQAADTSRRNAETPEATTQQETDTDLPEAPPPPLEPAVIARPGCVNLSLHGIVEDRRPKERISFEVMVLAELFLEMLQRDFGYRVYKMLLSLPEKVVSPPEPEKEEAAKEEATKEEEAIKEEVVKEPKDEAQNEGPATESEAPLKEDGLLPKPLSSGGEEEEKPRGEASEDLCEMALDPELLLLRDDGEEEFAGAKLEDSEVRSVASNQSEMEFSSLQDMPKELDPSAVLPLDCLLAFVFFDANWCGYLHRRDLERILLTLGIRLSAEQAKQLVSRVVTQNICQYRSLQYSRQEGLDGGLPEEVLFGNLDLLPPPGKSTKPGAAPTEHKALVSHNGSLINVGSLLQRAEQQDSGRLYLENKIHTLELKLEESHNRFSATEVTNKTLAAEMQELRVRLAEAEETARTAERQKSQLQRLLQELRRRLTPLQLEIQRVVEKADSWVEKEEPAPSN

Experiments:
[1] = target: Flag-tagged recombinant SIRT1 (UniProt Q96EB6); assay: pull-down; recombinant Flag-SIRT1 purified from 293 T cells incubated with mouse liver lysates mainly expressing DBC1 (FL) or DN-DBC1 (DN); precipitated with Flag antibody; only the target purified
[2] = target: endogenous SIRT1 of 293 T cells (human (endogenous in 293 T)) (UniProt Q96EB6); assay: co-IP; Flag-tagged FL and DN-DBC1 overexpressed in 293 T cells; binding to endogenous SIRT1; non-transfected cells as controls

binding [1] | binding [2] | Substance
binds | – | endogenous DBC1 (full length) of mouse liver (from UniProt Q8VDP4 1-922)
– | no binding | Flag-tagged recombinant DN-DBC1 lacking the first 138 residues (from UniProt Q8N163 139-923) (domain or fragment)
